The list is a part of this screen's results and no random one: it gathers tests that were run many times, whatever their T/C, doses with no T/C, and many T/C values between a quarter and a half above the control. Further doses and runs are listed elsewhere. T/C: endpoint of the treated group in % of that of the vehicle group. Some entries give survivors of the animals treated and no T/C: the source files T/C as zero there, which appears to mark a toxic dose or a test without result, not a measured value. Some doses without a T/C left all or most animals alive at the check, yet need not have been tolerated: the source hardly ever lists a survival T/C far under the control, and the zero likely stands for such cases as well. Survivors were counted at the toxicity check, usually on the fifth day, unless a day is given; later deaths do not show. Schedule codes are those of the source, taken here to give the interval after Q, in days (D) or hours (H), and the number of doses after X. Some entries were tested several times; the results are listed from low to high. Where survival is the endpoint, this PubChem deposit counts one and a half times the control or more as active, and values a quarter to a half above the control carry no call in these data; other NCI protocols may use other cut-offs. Some T/C values are followed by the survivors on the day toxicity was checked, most often the fifth; without a count, all were alive then. Counts like (3×) stand for listed records that agree.
Tested on: CD2F1 mice, L1210 leukemia ip, survival T/C
Test: NCI In Vivo Anticancer Drug Screen. Data for tumor model L1210 Leukemia (intraperitoneal) in CD2F1 (CDF1) mice
Conditions: T/C endpoint: median survival time, higher T/C = longer survival
Method in brief: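 Activity against a transplanted murine tumor was judged by comparing the compound group with a vehicle group. The outcome in the treated animals was divided by that in the controls.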

For `O=P1(N(CCCl)CCCl)NCCCO1` (stereo not given), the T/C (dose: 50.0 mg/kg/injection, schedule: Q01DX001 (ip), vehicle: water, evaluated on day 5) was 146 % of control, the T/C (dose: 50.0 mg/kg/injection, schedule: Q01DX001 (ip), vehicle: water, evaluated on day 45) was 144 % of control and the T/C (dose: 60.0 mg/kg/injection, schedule: Q01DX009 (ip), vehicle: water, evaluated on day 5) was 145 % of control. The T/C (dose: 60.0 mg/kg/injection, schedule: Q01DX009 (ip), vehicle: water, evaluated on day 23) was 145 % of control, the T/C (dose: 62.5 mg/kg/injection, schedule: Q01DX001 (ip), vehicle: saline) was 113 (2×), 117, 119, 128 % of control and the T/C (dose: 62.5 mg/kg/injection, schedule: Q01DX001 (ip), vehicle: water) was 131 and 144 % of control. For the same compound, the T/C (dose: 64.8 mg/kg/injection, schedule: Q01DX001 (iv), vehicle: saline) was 134 % of control, the T/C (dose: 75.0 mg/kg/injection, schedule: Q10HX004 (ip), vehicle: saline) was 148 % of control and the T/C (dose: 80.0 mg/kg/injection, schedule: Q01DX005 (ip), vehicle: saline, evaluated on day 30) was 155, 169, 174, 180, 182, 186 (2×), 188 (3×), 190, 192, 193, 196, 197 (4×), 202 (2×), 204, 207, 213 (2×), 216, 219 % of control. The T/C (dose: 80.0 mg/kg/injection, schedule: Q01DX005 (ip), vehicle: saline, evaluated on day 35) was 222 % of control, the T/C (dose: 80.0 mg/kg/injection, schedule: Q01DX005 (ip), vehicle: saline, evaluated on day 60) was 181 and 207 % of control and the survivor count (dose: 80.0 mg/kg/injection, schedule: Q01DX005 (ip), vehicle: saline) was 5 of 6. For the same compound, the T/C (dose: 80.0 mg/kg/injection, schedule: Q01DX009 (ip), vehicle: saline, evaluated on day 30) was 108 (2×), 111, 113, 125, 153, 162, 179, 185, 197, 200, 207, 208, 211, 214, 216 (2×), 219 (2×), 222, 223, 228, 232, 238, 244, 246, 265 % of control, the T/C (dose: 80.0 mg/kg/injection, schedule: Q01DX009 (ip), vehicle: saline, evaluated on day 35) was 195 % of control and the T/C (dose: 80.0 mg/kg/injection, schedule: Q01DX009 (ip), vehicle: saline, evaluated on day 60) was 204 and 219 % of control. The T/C (dose: 80.0 mg/kg/injection, schedule: Q01DX009 (ip), vehicle: water, evaluated on day 5) was 125 % of control, the T/C (dose: 80.0 mg/kg/injection, schedule: Q01DX009 (ip), vehicle: water, evaluated on day 23) was 125 % of control and the T/C (dose: 100.0 mg/kg/injection, schedule: Q01DX001 (ip), vehicle: saline, evaluated on day 6) was 131 and 137 % of control. For the same compound, the T/C (dose: 100.0 mg/kg/injection, schedule: Q01DX001 (ip), vehicle: saline, evaluated on day 11) was 131 and 137 % of control, the T/C (dose: 100.0 mg/kg/injection, schedule: Q01DX001 (ip), vehicle: saline, evaluated on day 20) was 144 % of control and the T/C (dose: 100.0 mg/kg/injection, schedule: Q01DX001 (ip), vehicle: saline, evaluated on day 30) was 139, 140, 143 (2×), 145, 147, 148, 148 [5 of 6 alive], 149, 150 (2×), 153, 154 (3×), 156 (2×), 158 (2×), 160 (2×), 161 (2×), 164, 165, 168 (2×), 172, 175 % of control. For the same compound, the T/C (dose: 100.0 mg/kg/injection, schedule: Q01DX001 (ip), vehicle: saline, evaluated on day 35) was 151 % of control, the T/C (dose: 100.0 mg/kg/injection, schedule: Q01DX001 (ip), vehicle: saline, evaluated on day 60) was 144 and 171 % of control and the T/C (dose: 125.0 mg/kg/injection, schedule: Q01DX001 (ip), vehicle: saline) was 130, 132, 150, 159, 164 % of control. For the same compound, the T/C (dose: 125.0 mg/kg/injection, schedule: Q01DX001 (ip), vehicle: water) was 148 % of control, the T/C (dose: 160.0 mg/kg/injection, schedule: Q01DX005 (ip), vehicle: saline, evaluated on day 30) was 90, 102, 107, 109, 111, 118, 120 (2×), 123 (3×), 125, 138, 158, 160, 164, 172, 185, 188 [5 of 6 alive], 190, 204, 301, 370 (2×), 375 % of control (2×) and the T/C (dose: 160.0 mg/kg/injection, schedule: Q01DX005 (ip), vehicle: saline, evaluated on day 35) was 197 % of control. For the same compound, the T/C (dose: 160.0 mg/kg/injection, schedule: Q01DX005 (ip), vehicle: saline, evaluated on day 60) was 180 and 198 % of control, the survivor count (dose: 160.0 mg/kg/injection, schedule: Q01DX005 (ip), vehicle: saline) was 4 of 6 and the T/C (dose: 160.0 mg/kg/injection, schedule: Q01DX009 (ip), vehicle: saline, evaluated on day 30) was 88, 89, 91, 95, 98 [5 of 6 alive], 102, 103 (2×), 104, 106, 112 [5 of 6 alive], 113, 114 (3×), 116, 120, 123, 125, 132 (2×), 139, 141, 146, 148, 149, 158 % of control. The T/C (dose: 160.0 mg/kg/injection, schedule: Q01DX009 (ip), vehicle: saline, evaluated on day 35) was 127 % of control, the T/C (dose: 160.0 mg/kg/injection, schedule: Q01DX009 (ip), vehicle: saline, evaluated on day 60) was 124 and 134 % of control and the T/C (dose: 175.0 mg/kg/injection, schedule: Q01DX001 (ip), vehicle: saline) was 189 (2×), 194, 204, 219, 243 % of control. The T/C (dose: 200.0 mg/kg/injection, schedule: Q01DX001 (ip), vehicle: saline, evaluated on day 5) was 215 and 229 % of control, the T/C (dose: 200.0 mg/kg/injection, schedule: Q01DX001 (ip), vehicle: saline, evaluated on day 6) was 173 and 176 % of control and the T/C (dose: 200.0 mg/kg/injection, schedule: Q01DX001 (ip), vehicle: saline, evaluated on day 11) was 173 and 176 % of control. The T/C (dose: 200.0 mg/kg/injection, schedule: Q01DX001 (ip), vehicle: saline, evaluated on day 20) was 144 % of control, the T/C (dose: 200.0 mg/kg/injection, schedule: Q01DX001 (ip), vehicle: saline, evaluated on day 30) was 156, 174, 176, 178, 180, 186 (2×), 191 (2×), 193 (2×), 195, 200, 201, 203 (2×), 204 (2×), 209, 222, 225 (2×), 232, 240, 271, 320, 352, 370 % of control (2×) and the T/C (dose: 200.0 mg/kg/injection, schedule: Q01DX001 (ip), vehicle: saline, evaluated on day 35) was 188 % of control. The T/C (dose: 200.0 mg/kg/injection, schedule: Q01DX001 (ip), vehicle: saline, evaluated on day 60) was 148, 178, 292 % of control, the T/C (dose: 200.0 mg/kg/injection, schedule: Q01DX001 (ip), vehicle: water, evaluated on day 5) was 132 % of control and the T/C (dose: 200.0 mg/kg/injection, schedule: Q01DX001 (ip), vehicle: water, evaluated on day 45) was 127 % of control. For the same compound, the T/C (dose: 250.0 mg/kg/injection, schedule: Q01DX001 (ip), vehicle: saline, evaluated on day 30) was 151, 163, 168, 222, 357, 410 % of control [5 of 6 alive], the T/C (dose: 250.0 mg/kg/injection, schedule: Q01DX001 (ip), vehicle: saline, evaluated on day 60) was 160 % of control and the T/C (dose: 265.0 mg/kg/injection, schedule: Q01DX001 (ip), vehicle: saline) was 223, 523, 542 (2×), 548, 576 % of control. The T/C (dose: 300.0 mg/kg/injection, schedule: Q01DX001 (ip), vehicle: saline, evaluated on day 5) was 200, 253, 323 % of control, the T/C (dose: 300.0 mg/kg/injection, schedule: Q01DX001 (ip), vehicle: saline, evaluated on day 6) was 112, 188, 208 % of control and the T/C (dose: 300.0 mg/kg/injection, schedule: Q01DX001 (ip), vehicle: saline, evaluated on day 11) was 188 and 208 % of control. For the same compound, the T/C (dose: 400.0 mg/kg/injection, schedule: Q01DX001 (ip), vehicle: saline, evaluated on day 6) was 200 and 206 % of control, the T/C (dose: 400.0 mg/kg/injection, schedule: Q01DX001 (ip), vehicle: saline, evaluated on day 11) was 200 and 206 % of control and the T/C (dose: 400.0 mg/kg/injection, schedule: Q01DX001 (ip), vehicle: saline, evaluated on day 30) was 88, 95, 122 [5 of 6 alive], 125 [5 of 6 alive], 132 [4 of 6 alive], 139, 139 [5 of 6 alive], 177 [5 of 6 alive], 237, 275, 283, 296, 322, 337 [4 of 6 alive], 340, 345, 348, 361, 361 [5 of 6 alive], 370 (6×), 370 [5 of 6 alive], 375 % of control (2×). For the same compound, the T/C (dose: 400.0 mg/kg/injection, schedule: Q01DX001 (ip), vehicle: saline, evaluated on day 35) was 432 % of control, the T/C (dose: 400.0 mg/kg/injection, schedule: Q01DX001 (ip), vehicle: saline, evaluated on day 60) was 409 and 731 % of control and the survivor count (dose: 400.0 mg/kg/injection, schedule: Q01DX001 (ip), vehicle: saline) was 4 of 6. The survivor count (dose: 400.0 mg/kg/injection, schedule: Q01DX001 (ip), vehicle: water) was 8 of 10, the T/C (dose: 500.0 mg/kg/injection, schedule: Q01DX001 (ip), vehicle: saline, evaluated on day 6) was 120 % of control and the T/C (dose: 500.0 mg/kg/injection, schedule: Q01DX001 (ip), vehicle: saline, evaluated on day 30) was 357 and 370 % of control. The survivor count (dose: 500.0 mg/kg/injection, schedule: Q01DX001 (ip), vehicle: saline) was 2 of 6 and 3 of 6, the survivor count (dose: 500.0 mg/kg/injection, schedule: Q01DX001 (ip), vehicle: water) was 2 of 6 and 5 of 6 and the T/C (dose: 600.0 mg/kg/injection, schedule: Q01DX001 (ip), vehicle: saline) was 131 % of control.

Source: PubChem BioAssay AID256 (DTP/NCI, 2004)
